Measured values published in paper PMC7760315 (Biomolecules, 2020).

Tested on: GlyRα1/GlyT2
Experiment: Two-electrode voltage clamp, oocytes co-expressing GlyRα1/GlyT2
Type: cell-based, human
Details: 1 µM lipid; fast-flow
Source text: Human GlyT1b and GlyT2a WT cDNA were subcloned into the plasmid oocyte transcription vector (pOTV) and human GlyRα1, GlyRα3 and GlyRβ into pGEMHE. GlyR cDNA pGEMHE vectors were provided by Mary Collins at the University of Sydney (Sydney, Australia). Single point mutations were introduced into GlyRα1 using the Q5 site-directed mutagenesis kit (New England Biolabs (Genesearch), Arundel, Australia) with oligonucleotide primers (Merck, Sydney, Australia) containing the desired mutations. The amplified cDNA/pOTV or cDNA/pGEMHE product was then transformed in E. coli cells, and subsequently purified using the PureLink Quick Plasmid Miniprep Kit (Invitrogen by Life Technologies, Löhne, Germany), and sequenced by the Australian Genome Research Facility (Sydney, Australia). The purified plasmid DNA was linearised via the restriction enzyme, SpeI (New England Biolabs (Genesearch), Arundel, Australia) for GlyT1b and GlyT2a (henceforth referred to as GlyT1 and GlyT2 respectively) and NheI (New England Biolabs (Genesearch)) for GlyRα1, GlyRα3 and GlyRβ. Complementary RNAs were synthesised using the mMESAGE mMACHINE T7 kit (Ambion, Austin, TX, USA).
All work involving the use of animals was performed in accordance with the Australian Code of Practice for the Care and Use of Animals for Scientific Purposes and approved by the University of Sydney Animal Ethics Committee (Approval numbers 2016/970 and 2020/1704). […] The oocytes were then stored in frog Ringer’s solution (96 mM NaCl, 2 mM KCl, 1 mM MgCl2, 1.8 mM CaCl2, 5 mM HEPES, pH 7.5) which was supplemented with 2.5 mM sodium pyruvate, 0.5 mM theophylline, 50 μg/mL gentamicin and 100 μM mL^−1 tetracycline. […]
GlyT1, GlyT2, GlyRα1, GlyRα3, GlyRα1β and GlyRα3β are electrogenic, allowing activation to be measured via the two-electrode voltage clamp technique. Oocytes were voltage clamped at −60 mV, and whole-cell currents generated by the substrate were recorded with a Geneclamp 500 amplifier (Axon Instruments, Foster City, CA, USA), digitised by a Powerlab 2/20 chart recorder (ADInstruments, Sydney, Australia). […]

| Structure (SMILES) | nH of glycine dose-response in the presence of lipid [ns] |
| --- | --- |
| CCCCCCCCC=CCCCCCCCC(=O)NC(CCSC)C(=O)O [C18-cis-ω9-L-methionine] | 2.6 ± 0.4 |
| CCCCCC/C=C\CCCCCCCCCC(=O)NCC(=O)O [C18-cis-ω7-glycine] | 3.0 ± 0.5 |
| CCCCCCCC/C=C\CCCCCCCC(=O)NCC(=O)O [C18-cis-ω9-glycine] | 2.7 ± 0.4 |
